Assay results as given in paper PMC6399299, “Pocket similarity identifies selective estrogen receptor modulators as microtubule modulators at the taxane site” (Nature Communications, 2019).

These compounds were tested on T1, Purified tubulin (alpha/beta-tubulin heterodimer; taxane site of beta-tubulin) (assay: DAPI fluorescence tubulin polymerization assay). Conditions: 50 µM; 50 µM compound, 1 mM GTP, pH 6.9, 37 °C, 30 min; 100% = 10 µM paclitaxel.
T1 construct: gene TUBB; mixed isotypes
Assay type: biochemical
Excerpt: DAPI fluorescence tubulin polymerization assay on Purified tubulin (alpha/beta-tubulin heterodimer; taxane site of beta-tubulin)

| Compound | In vitro polymerization^a / MEP (%) |
| --- | --- |
| O=C(c1ccc(OCCN2CCCCC2)cc1)c1c(-c2ccc(O)cc2)sc2cc(O)ccc12 [compound 7, RAL] | 34.5 |
| Oc1ccc2c(c1)CC[C@H](c1ccccc1)[C@@H]2c1ccc(OCCN2CCCC2)cc1 [compound 13, LAS] | 23.5 |
| CCC(=C(c1ccc(O)cc1)c1ccc(O)cc1)c1cccc(Nc2cccc3ccccc23)c1 [compound 3, 5C6] | 26.7 |
